Results of single-concentration screens

Measurements from “University of Dundee, Small-Polar-MMV Screening Library” (2021), ChEMBL document CHEMBL3988442.

Mtb cholesterol medium: 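Whole-cell growth test on Mycobacterium tuberculosis, read after 4 days in a medium based on cholesterol and the lipid DPPC; the read-out is not stated. Concentration: 50 µM. Direction is inferred from retests: higher values go with more growth inhibition. Of about 69,000 compounds tested this way, about 370 (0.54%) reached 50% or more in at least one test.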
Mtb glucose medium: 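Whole-cell growth test on Mycobacterium tuberculosis, read after 3 days in glucose-containing 7H9 medium; the read-out is not stated. Compounds at 50 µM. Direction is inferred from retests: higher values go with more growth inhibition. Of about 69,000 compounds tested this way, about 760 (1.1%) reached 50% or more in at least one test.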

Each number is a percent effect as filed.
The controls that fix the scale are not given in the record; negative values are as filed.
The compounds are a random part of those screened.
Two or more numbers in one place are separate tests of the same structure; such repeats can differ widely.

{"compound": "CN(CCCc1n[nH]c(N)c1C#N)C(=O)Nc1cc(Cl)cc(Cl)c1", "Mtb cholesterol medium": -1.838, "Mtb glucose medium": 24.03}
{"compound": "CC(Oc1ccccc1C(F)(F)F)C(=O)NCCC(=O)N(C)C", "stereo": "centres undefined", "Mtb cholesterol medium": "-0.2073 & 8.582", "Mtb glucose medium": 1.322}
{"compound": "Cc1nc2sc(C(=O)N3CCNC(=O)C3)c(C)c2c(=O)[nH]1", "Mtb cholesterol medium": 19.25, "Mtb glucose medium": "-4.777 & -2.971"}
{"compound": "Cc1ncsc1C(=O)NCc1ccc(-c2n[nH]cc2C(=O)N(C)C)cc1", "Mtb cholesterol medium": "5.785 & -10.16", "Mtb glucose medium": -23.23}
{"compound": "CC(C)C(=O)N1CCCC2(C1)CN(c1nncs1)CCO2.O=C(O)C(F)(F)F", "stereo": "centres undefined", "Mtb cholesterol medium": -8.508, "Mtb glucose medium": -10.11}
{"compound": "CCN1CCC(NN2CCN(C)CC2)CC1", "Mtb cholesterol medium": 1.522, "Mtb glucose medium": -7.089}
{"compound": "CC1CCCN(Cc2ccc(C(N)=O)cc2)C1", "stereo": "centres undefined", "Mtb cholesterol medium": 0.1211, "Mtb glucose medium": 11.13}
{"compound": "CCN(C(=O)C1CCC1)C(c1cccnc1)c1ccc2c(c1)CCO2", "stereo": "centres undefined", "Mtb cholesterol medium": "-8.002 & -65.97", "Mtb glucose medium": -69.03}
{"compound": "O=C(O)C(F)(F)F.[H][C@]12CO[C@@H](CNC(=O)N(C)C)[C@@]1([H])CCN(Cc1ccc(OC)cc1)C2", "Mtb cholesterol medium": 9.834, "Mtb glucose medium": "17.92 & 1.795"}
{"compound": "O=C(O)C(F)(F)F.O=C(O)C(F)(F)F.O=C1CC(c2ccncc2)C2(CCN(CCc3ccccc3)CC2)N1", "stereo": "centres undefined", "Mtb cholesterol medium": 18.32, "Mtb glucose medium": 34.17}
{"compound": "CCc1csc(CNCC(=O)Nc2ccc(Cl)c(C)c2)n1", "Mtb cholesterol medium": 4.597, "Mtb glucose medium": -7.856}
{"compound": "Cc1ccccc1C(C(=O)O)N(C)CC1CCOCC1", "stereo": "centres undefined", "Mtb cholesterol medium": -6.328, "Mtb glucose medium": 9.134}
{"compound": "Cc1nn(C)c2nc(NC(C)c3n[nH]c(=O)[nH]3)sc12", "stereo": "centres undefined", "Mtb cholesterol medium": -8.752, "Mtb glucose medium": "-8.349 & -6.477"}
{"compound": "CN(C)C(=O)CCC(=O)NCc1cccnc1-n1cnc2ccccc21", "Mtb cholesterol medium": 13.91, "Mtb glucose medium": -9.445}
{"compound": "O=C(c1ccc(-c2ccsc2)nc1)N1CCCN(C2CCCCC2)CC1", "Mtb cholesterol medium": -19.06, "Mtb glucose medium": "-5.184 & -35.74"}
{"compound": "CC(NC(C)(C)CN)c1ccccc1", "stereo": "centres undefined", "Mtb cholesterol medium": 7.025, "Mtb glucose medium": "4.123 & -1.055"}
{"compound": "Cc1nc[nH]c1CN1CCOC(c2ccc(Cl)c(Cl)c2)C1", "stereo": "centres undefined", "Mtb cholesterol medium": -11.73, "Mtb glucose medium": 2.518}
{"compound": "Fc1ccc(Cc2cccc(C3CCN(C4CCOCC4)CC3)n2)cc1", "Mtb cholesterol medium": -10.17, "Mtb glucose medium": -1.168}
{"compound": "COc1ccccc1N1CC(NC(=O)c2cc(C(C)C)nn2C)CC1=O", "stereo": "centres undefined", "Mtb cholesterol medium": 4.96, "Mtb glucose medium": "-14.88 & -3.323"}
{"compound": "COCCCNC(=O)NCc1nc(C)c(C)o1", "Mtb cholesterol medium": -11.97, "Mtb glucose medium": -3.061}
{"compound": "O=C1OCCN1CCCN1CCCC1c1ccc(O)cc1", "stereo": "centres undefined", "Mtb cholesterol medium": 5.89, "Mtb glucose medium": "-9.95 & 11.88"}
{"compound": "CCN1CCOCC12CCN(C(=O)Cc1cccs1)CC2.O=C(O)C(F)(F)F", "Mtb cholesterol medium": -4.193, "Mtb glucose medium": "3.757 & 1.423"}
{"compound": "CN1CCN(C(=O)c2nnc3ccc(Cl)cc3n2)CC1", "Mtb cholesterol medium": 17.51, "Mtb glucose medium": 47.03}
{"compound": "Cc1nc2ccccc2nc1CN1CCn2nc(CCC(=O)O)cc2C1", "Mtb cholesterol medium": "-22.03 & -17.68", "Mtb glucose medium": -49.48}
{"compound": "O=C(CCNCc1cccc2c1OCCCO2)NC1CCCC1", "Mtb cholesterol medium": -23.63, "Mtb glucose medium": "-19.19 & 7.641"}
{"compound": "CC(Nc1ccc(C#N)cc1F)c1cccc(S(N)(=O)=O)c1", "stereo": "centres undefined", "Mtb cholesterol medium": "0.7 & 16.79", "Mtb glucose medium": 3.459}
{"compound": "O=C(CN1CCCCC1)NCc1cccnc1-n1cnc2ccccc21", "Mtb cholesterol medium": -4.576, "Mtb glucose medium": 0.351}
{"compound": "CC(C)c1nc(CN(C)C2CCN(CCS(C)(=O)=O)C2)no1", "stereo": "centres undefined", "Mtb cholesterol medium": -7.115, "Mtb glucose medium": -5.199}
{"compound": "COC(=O)C1CN(Cc2ccc(-c3ccncc3)cc2F)C[C@@H](C)O1", "stereo": "some centres undefined", "Mtb cholesterol medium": -47.39, "Mtb glucose medium": "17.79 & -9.744"}
{"compound": "Fc1cccc(-c2nc(CN3CCCC3Cn3cncn3)co2)c1", "stereo": "centres undefined", "Mtb cholesterol medium": -28.7, "Mtb glucose medium": -2.558}
{"compound": "Cc1cc(OCc2cccc(F)c2)ccc1NC(=O)C(C)NC(N)=O", "stereo": "centres undefined", "Mtb cholesterol medium": -35.73, "Mtb glucose medium": -5.356}
{"compound": "CC(C)(C)c1nc(CN2CCC(N3CCCCC3)CC2)no1", "Mtb cholesterol medium": -17.22, "Mtb glucose medium": -5.708}
{"compound": "CC(=O)N1CCC(c2cncc(N3CCCCCC3)n2)CC1", "Mtb cholesterol medium": 21.22, "Mtb glucose medium": 14.63}
{"compound": "Cc1occc1C(=O)N1CCC[C@]2(C[C@@H](OCc3ccccn3)CO2)C1.O=C(O)C(F)(F)F", "Mtb cholesterol medium": "8.699 & -3.749", "Mtb glucose medium": -13.43}
{"compound": "CCn1cc(C(=O)N2CCCC(c3nccs3)C2)cn1", "stereo": "centres undefined", "Mtb cholesterol medium": -1.609, "Mtb glucose medium": 39.11}
{"compound": "CCC1CN(CC(=O)N2CCCC2)CCN1CCOC", "stereo": "centres undefined", "Mtb cholesterol medium": -21.8, "Mtb glucose medium": -10.81}
{"compound": "CCN1CC(Oc2ccc(Cl)cc2)=NC(SCC(=O)c2ccccc2)=N1", "Mtb cholesterol medium": -5.86, "Mtb glucose medium": -1.691}
{"compound": "COc1cc(CNC(=O)CNc2cc(Cl)ccc2OC)ccn1", "Mtb cholesterol medium": 14.75, "Mtb glucose medium": 21.69}
{"compound": "CC(C)(C)NC(=O)NC(=O)COc1nc(C(C)(C)C)no1", "Mtb cholesterol medium": -7.526, "Mtb glucose medium": "-2.445 & -11.13"}
{"compound": "Cc1c(C(=O)N2CCC(O)(CN(C)C)C2)c2cc(O)ccc2n1C", "stereo": "centres undefined", "Mtb cholesterol medium": "-3.759 & -15.78", "Mtb glucose medium": "-12.94 & 0.0894"}
{"compound": "CS(=O)(=O)CCCNC1(c2ccc(Br)cc2)CCC1", "Mtb cholesterol medium": "5.248 & 2.868", "Mtb glucose medium": 17.32}
{"compound": "O=C(O)C(F)(F)F.O=C(O)C(F)(F)F.[H][C@@]12OCCN(Cc3ccc(F)cc3)[C@@]1([H])CC[C@H]2OCCN1CCCC1", "Mtb cholesterol medium": -21.81, "Mtb glucose medium": -7.267}
{"compound": "CN(C)c1nccc(C2CCCCN2Cc2cnn3cccnc23)n1", "stereo": "centres undefined", "Mtb cholesterol medium": -2.12, "Mtb glucose medium": -6.525}
{"compound": "N#CCCN(c1ccccc1)S(=O)(=O)CC1CCCCO1", "stereo": "centres undefined", "Mtb cholesterol medium": -4.419, "Mtb glucose medium": "-34.14 & 10.89"}
{"compound": "CN(Cc1cn(C2CCNCC2)nn1)CC1CCCO1", "stereo": "centres undefined", "Mtb cholesterol medium": 13.09, "Mtb glucose medium": 16.52}
{"compound": "O=C(O)C(F)(F)F.[H][C@]12CCN(Cc3c(C)noc3C)[C@@]1([H])CC[C@@H](COCC(C)C)O2", "Mtb cholesterol medium": -1.952, "Mtb glucose medium": "2.676 & -2.9"}

The first 3 entries again:

| compound | Mtb cholesterol medium | Mtb glucose medium |
|---|---|---|
| `CN(CCCc1n[nH]c(N)c1C#N)C(=O)Nc1cc(Cl)cc(Cl)c1` | -1.838 | 24.03 |
| `CC(Oc1ccccc1C(F)(F)F)C(=O)NCCC(=O)N(C)C` (centres undefined) | -0.2073 & 8.582 | 1.322 |
| `Cc1nc2sc(C(=O)N3CCNC(=O)C3)c(C)c2c(=O)[nH]1` | 19.25 | -4.777 & -2.971 |